Laboratory results published in PubChem BioAssay AID651803 (National Center for Advancing Translational Sciences (NCATS), 2012).
The whole screen tested about 1,200 compounds, of which fewer than 10 were called active. Calls follow the shape of the dose curve; as a rule, active = well fitted curve in the direction sought with a large enough effect; inconclusive = small, poorly fitted or top-dose-only effect, or another doubt; inactive = no such curve, though single readings can be large or run the other way. Some of the results follow.

Amino acid sequences for entries named in this document (tags omitted). A change or cut given only in a name is not applied to a line headed by its entry.
UniProt P11308: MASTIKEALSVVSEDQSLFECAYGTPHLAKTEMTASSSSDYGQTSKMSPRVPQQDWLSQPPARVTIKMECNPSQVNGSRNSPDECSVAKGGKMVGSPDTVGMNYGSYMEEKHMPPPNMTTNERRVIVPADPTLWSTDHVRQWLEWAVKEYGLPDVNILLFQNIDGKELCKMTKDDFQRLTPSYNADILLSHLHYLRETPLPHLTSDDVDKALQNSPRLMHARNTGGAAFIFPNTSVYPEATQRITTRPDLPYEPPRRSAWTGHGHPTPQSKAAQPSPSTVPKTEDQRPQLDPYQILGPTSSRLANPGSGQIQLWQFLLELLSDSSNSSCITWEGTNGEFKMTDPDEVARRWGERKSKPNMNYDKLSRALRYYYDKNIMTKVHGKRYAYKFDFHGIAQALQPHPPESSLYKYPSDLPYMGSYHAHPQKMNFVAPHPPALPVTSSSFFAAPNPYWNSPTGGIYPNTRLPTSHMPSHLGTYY

biological target: Transcriptional regulator ERG (Homo sapiens) (UniProt P11308); assay: qHTS for Small Molecule Inhibitors of the ERG Ets/DNA interaction: TR assay against cherry picks; details: ERG Ets domain-DNA fluorescence polarization, Texas red probe; at 154 µM (top of the series); also: % of control where 0% means no effect
Summary of the method: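 Polarization read sequentially for fluorescein (ex 480/em 535 nm) and Texas red (ex 555/em 632 nm) probes, 5 nM and 100 nM solutions, displaced from His-ERG Ets domain (1 uM solution), pH 7.5 Tris/KCl/EDTA/DTT buffer.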

Activity change, negative = inhibition, inactive:
CN(C)c1nc2n(c(=S)n1)CCS2 -12.7%
COc1ccccc1C/C(N)=N/OC(=O)COc1ccc(C)cc1C 6.17%
CC(=O)Nc1ccc(NC(=O)Cn2c(=O)n(-c3ccccc3)c(=O)c3oc4ccccc4c32)cc1 0.864%
O=C(COc1ccc(F)cc1)Nc1nnc(-c2ccncc2)s1 -8.56%
CCn1ccc2c(OCC(=O)Nc3ccc(C(C)=O)cc3)cccc2c1=O -2.76%
CCN1CCN(CCCNC(=O)C2CCN(c3nnc(-n4cccc4)s3)CC2)CC1 -2.91%
C#CCn1c(CCNC(=O)c2ccco2)nc2ccccc21 1.03%
C/C(=N\NC(=O)c1ccc(CSc2nc(C)cc(C)n2)cc1)c1ccco1 -6.9%
CN(C)C(=O)c1ccc(NC(=O)COc2ccc([N+](=O)[O-])cc2)cc1 -5.46%
Cc1ccccc1OCc1nnc(SCC(=O)Nc2ccc(N3CCOCC3)c(Cl)c2)n1C -15.8%
CC(=O)N1CCN(c2nnc(-c3ccccc3)c3ccccc23)CC1 -6.94%
CCCCN(CC)CCCNC(=S)Nc1ccc2nc(N3CCN(C)CC3)cc(C)c2c1 -19.3%
COCCNC(=O)CSc1nc2ccccc2c(=O)n1-c1cccc(OC)c1 -10.6%
CCc1nn2c(=O)cc(CSCC(=O)Nc3ccccc3F)nc2s1 0.547%
Fc1cccc(NC(=S)N2CCN(c3ccccn3)CC2)c1 6.51%
Cc1noc(C)c1CSCC(=O)Nc1cc(S(=O)(=O)N2CCOCC2)ccc1OC(C)C 4.53%
CCC(Sc1nccn1C)C(=O)Nc1ccc(Cl)cn1 (stereo not drawn) 0.0641%
CCn1nc(C)c(CNC(=O)c2cc(COc3ccccc3SC)on2)c1C -12.1%
COC(OC)c1nc(SCC(=O)Nc2cccc(Cl)c2)ncc1C(=O)O 4.07%
CC(C)N=c1cc2n(-c3ccc(Cl)cc3)c3ccccc3nc-2cc1Nc1ccc(Cl)cc1 4.41%
CC(C)CN=CC1=C(O)c2ccccc2C1=O 1.63%
COc1cc(/C=C2/SC(=O)NC2=O)ccc1OC(=O)c1ccco1 -5.95%
CC(CCC(=O)O)C1CCC2C3C(O)CC4CC(O)CCC4(C)C3CC(O)C12C (stereo not drawn) -8.1%
O=C(N/N=C/c1cccs1)c1cccs1 -19.9%
CC(C)NC(=O)Cn1cnc2c(cnn2-c2ccc(F)cc2)c1=O 1.86%
Cc1nc(-c2ccc(F)cc2)c(CC(=O)N2CCN(S(=O)(=O)c3cccc(F)c3)CC2)s1 -7.98%
CC(C)N1CCC(N2CCN(Cc3cccc4nonc34)CC2CCO)CC1 (stereo not drawn) 6.57%
CCc1ccccc1N(CC(=O)NCc1ccco1)C(=O)CCC(=O)Nc1ccccn1 -0.223%
O=C(Nc1c(C(=O)C2CC2)oc2ccccc12)c1ccc(Cl)cc1 -18.4%
Cc1ccc(NS(=O)(=O)c2cc(Br)cnc2N)c(Cl)c1 -14.9%
Cc1cc(C)cc(-n2ccnc2SCC(=O)Nc2ccc(C)c(Cl)c2)c1 -21.9%
CCCn1c(=N)c(S(=O)(=O)c2ccccc2)cc2c(=O)n3ccccc3nc21 -0.744%
CCOc1ccc(NC(=O)CCNS(=O)(=O)c2cccc3nsnc23)cc1 -17.3%
CCC1CCC(NC(=O)Nc2cccc(OC)c2)CC1 (stereo not drawn) -3.04%
Cc1cccc(Nc2c(O)nc[nH]c2=O)c1 1.66%
Cn1cccc1C(=O)OCC(=O)Nc1ccc2[nH]c(=O)[nH]c2c1 -18.6%
O=C(O)c1ccc(CSCc2ccccc2F)o1 -8.02%
C[C@H](NC(=O)[C@@H]1Cc2ccccc2CN1C(=O)OC(C)(C)C)C(=O)NC1CCCCC1 3.13%
CCOCCn1c(CN2CCCCC2)nc2c1c(=O)n(C)c(=O)n2C -5.6%
CCOC(=O)C1=C(C)N=c2s/c(=C\c3cc(OC)c(OC)c(OC)c3)c(=O)n2C1/C=C/c1ccccc1 (stereo not drawn) 3.6%
CC(=O)Nc1ccc(S(=O)(=O)N[C@@H](C)C(=O)N2CCN(C/C=C/c3ccccc3)CC2)cc1 -0.505%
CC(=O)Nc1ccc2c(c1)NC(=O)CC2 -10.3%
CC(C)(CO)CNC(=O)c1ccc(OC2CCN(C(=O)C3CC3)CC2)cc1 -13.8%
O=C(NCc1ccc(F)cc1F)c1cc(COc2c(F)cccc2F)on1 9.58%
O=C(OCC(=O)c1c[nH]c2ccccc12)c1ccc([N+](=O)[O-])s1 -15.3%
Cc1oc2nc(SCCCC(=O)NCCCO)nc(N)c2c1C 5%
CCc1c(C)sc(NC(=O)OC)c1C(=O)N1CCCCC1 37.7%
Cc1ccc(CNC(=O)CSCc2ccc(F)cc2)cc1 6.78%
O=C(O)CC(c1cccc2ccccc12)N1Cc2ccccc2C1=O (stereo not drawn) -0.839%
S=c1nc[nH]c2nc[nH]c12 -2.25%
CC(=O)Nc1ccc(-c2csc(NC(=O)C3CC(=O)N(c4ccc5c(c4)OCCO5)C3)n2)cc1 (stereo not drawn) -2.75%
CCCC(=Nc1ccc(N)cc1)C1=C(O)C(C(=O)OC)C(C)(C)CC1=O (stereo not drawn) 7.31%
COc1ccccc1CN1CCCCC1C(=O)O (stereo not drawn) 5.9%
O=C(Nc1ccc(O)cc1)C1CC=CCC1 (stereo not drawn) -10.8%
Cc1ccccc1-n1c(=O)n(CCc2ccccc2)c(=O)c2[nH]cnc21 6.33%
CCS(=O)(=O)N1CCC(C(=O)OCC(=O)c2ccc(Br)cc2)CC1 8.14%
COc1ccc(Cl)cc1N=Cc1c(O)c2ccccc2oc1=O -10.2%
C=CCN1C(=O)c2ccc(C(=O)Nc3ccccn3)cc2C1=O -1.88%
Cc1cccc(N2C(=O)c3cccc4c(N)ccc(c34)C2=O)c1 85.1%
O=c1ccc(-c2ccc(S(=O)(=O)Nc3cccc(Br)c3)o2)n[nH]1 2.8%
O=C1Nc2cc(C(=O)N3CCOCC3)ccc2SC1N1CCOCC1 (stereo not drawn) 24.3%
CC(C)=CCC/C(C)=C/CNC(=O)C[C@H]1C[C@H](C(=O)N2CCCCC2)[C@@]2(CCc3ccccc3)c3[nH]c4cc(-c5ccco5)ccc4c3CCN2C1=O 33.8%
NS(=O)(=O)c1ccc(-c2ccc(/C=C3\SC(=S)N(C4CCS(=O)(=O)C4)C3=O)o2)cc1 (stereo not drawn) 41.9%
Cc1csc(SCC(=O)NC2CCS(=O)(=O)C2)n1 (stereo not drawn) 3.76%
O=C(CCN=C1NS(=O)(=O)c2ccccc21)OCc1ccccc1 8.89%
COC(=O)Nc1ccc(S(=O)(=O)NNC(=O)c2c(O)c3ccccc3n(C)c2=O)cc1 -14.6%
Cc1ccc(S(=O)(=O)/N=C(/NC(=S)Nc2c(C)n(C)n(-c3ccccc3)c2=O)c2ccccc2)cc1 4.97%
COc1cc(OC)c(N(C)S(=O)(=O)c2cccc(C(=O)NC(C)C3CC4CCC3C4)c2)cc1Cl (stereo not drawn) -3.28%
CCCN(CC(=O)Nc1ccc(F)c(F)c1F)C(=O)C1CC(=O)N(Cc2ccccc2)C1 (stereo not drawn) 0.104%
Clc1ccc(N=c2ssnc2Cl)nc1 22.8%
O=C(OCC(=O)c1ccc(Cl)s1)c1cncc(Br)c1 -5.16%
COC(=O)c1ccccc1NC(=O)c1cc(C2CC2)on1 -11.6%
Nc1cccc2c(O)cc(S(=O)(=O)O)cc12 -7.17%
CC1=C(C#N)CCC(=O)N1Cc1c(F)cccc1Cl 3.55%
Nc1c(C(=O)O)cnn1-c1ccccc1 -3.42%
CCN(Cc1ccccc1)C(=O)CN1C(=O)c2ccccc2C1=O -0.388%
O=C(COc1coc(CN2CCCc3ccccc32)cc1=O)Nc1cccc([N+](=O)[O-])c1 2.41%
Cc1ccc(S(=O)(=O)NCC(=O)N(CC(=O)NCC2CCCO2)c2cccc(F)c2)cc1 (stereo not drawn) -5.86%
COc1cc2ccccc2ccc1=NO -9.11%
CCCn1c(SCC(=O)Nc2cccc(C(=O)OCC)c2)nnc1-c1ccoc1C 11.3%
CC(CCc1ccccc1)NC(=S)NC1CCCCC1 (stereo not drawn) 10.3%
CC(C)=CCOc1ccc2ccc(=O)oc2c1 -0.682%
Cc1ccc(-n2c(CCC(=O)O)ccc2-c2cccs2)cc1Cl -7.34%
Cc1cccc(-c2oc3ccccc3c2-c2ccc3c(c2)OCO3)c1 2.05%
O=C(NCCCc1ccccc1)C(=O)NCC1OCCN1S(=O)(=O)c1cc(F)ccc1F (stereo not drawn) 12.2%
Cc1ccc(S(=O)(=O)N2CCC[C@H]2C(=O)NC2CCCCC2)cc1 -7.93%
COc1ccc(CS(=O)c2nc(C)cc(C)c2S(C)(=O)=O)cc1 (stereo not drawn) -3.05%
CCOc1ccc(-c2nnc(NC(=O)Cc3cc(OC)c(OC)c(OC)c3)o2)cc1 3.11%
CCOC(=O)c1ccc(NC(=S)N2CCSC2c2ccc(OC)cc2)cc1 (stereo not drawn) 25.8%
O=C(Nc1ccccc1N1CCCCC1)c1ccc2nccnc2c1 -20.5%
COc1ccc(-c2c/c(=N\c3nc(-c4ccccc4)c(C)s3)c3ccccc3o2)cc1O -21.1%
c1ccc2oc(-c3ccn[nH]3)cc2c1 -4.22%
O=C(O)c1ccccc1Nc1cccc(OCc2ccc3ccccc3n2)c1 -17%

Quoted at random: 4 compounds from above.
Activity change, negative = inhibition, inactive:
CCn1nc(C)c(CNC(=O)c2cc(COc3ccccc3SC)on2)c1C -12.1%
CCc1ccccc1N(CC(=O)NCc1ccco1)C(=O)CCC(=O)Nc1ccccn1 -0.223%
O=C(COc1ccc(F)cc1)Nc1nnc(-c2ccncc2)s1 -8.56%
O=C(OCC(=O)c1ccc(Cl)s1)c1cncc(Br)c1 -5.16%

Ordered by length of the SMILES (rising): part of the list above.
Activity change, negative = inhibition, inactive:
CC(C)CN=CC1=C(O)c2ccccc2C1=O 1.63%
CCc1c(C)sc(NC(=O)OC)c1C(=O)N1CCCCC1 37.7%
CCn1nc(C)c(CNC(=O)c2cc(COc3ccccc3SC)on2)c1C -12.1%
